{"source": "patent US20250090699A1", "about": "(Novartis AG, priority 2023, published 2025)", "assay": "general procedure: Fmoc solid-phase peptide synthesis; H-Gly-Cl-Trt resin, H-Gly-Trt-Amide-MBHA resin or H-Gly-HMPB-Bal-MBHA resin; HATU, PyAOP, PyOxim, DIC/Oxyma Pure, DIEA as base", "settings": "for conjugation yield: conjugation step; for conjugation yield / step yield / isolated mass / isolated yield: TFA salt; for step yield: late stage modification step; for isolated mass / isolated yield: whole synthesis", "key": {"[1]": {"settings": "head-to-tail ring, sequence written open"}}}
{"substance": "2,2′,2″-(10-((R)-4-((2-(4-(((9S,12S,15S,18S,24S,27S,32aR)-18-((1H-indol-3-yl)methyl)-9-benzyl-27-(carboxymethyl)-24-(4-hydroxybenzyl)-8-methyl-1,4,7,10,13,16,19,22,25,28-decaoxo-15-pentyldotriacontahydropyrrolo[1,2-a][1,4,7,10,13,16,19,22,25,28]decaazacyclotriacontin-12-yl)methyl)phenoxy)ethyl)amino)-1-carboxy-4-oxobutyl)-1,4,7,10-tetraazacyclododecane-1,4,7-triyl)triacetic acid TFA salt", "values": [{"measurement": "conjugation yield", "value": 46, "unit": "%"}]}
{"substance": "2-(4-((4-((6S,9S,15S,18S,21S,24S,29aS,34aR)-15-((1H-indol-3-yl)methyl)-21-(4-((2-(2-(2-aminoethoxy)ethoxy)acetamido)methyl)benzyl)-24-benzyl-6-(carboxymethyl)-25-methyl-5,8,11,14,17,20,23,26,29,34-decaoxo-18-(2-propoxyethyl)dotriacontahydro-1H,5H-dipyrrolo[1,2-a:1′,2′-b1][1,4,7,10,13,16,19,22,25,28]decaazacyclotriacontin-9-yl)butyl)carbamoyl)piperazin-1-yl)acetic acid TFA salt", "values": [{"measurement": "step yield", "value": 50, "unit": "%"}]}
{"substance": "2-((3S,9S,12S,15S,18S,24S,27S,32aR)-18-((1H-indol-3-yl)methyl)-3-(4-aminobutyl)-9-benzyl-15-(3-((S)-2-cyano-4,4-difluoropyrrolidin-1-yl)-3-oxopropyl)-12,24-bis(4-hydroxybenzyl)-8-methyl-1,4,7,10,13,16,19,22,25,28-decaoxodotriacontahydropyrrolo[1,2-a][1,4,7,10,13,16,19,22,25,28]decaazacyclotriacontin-27-yl)acetic acid TFA salt", "values": [{"measurement": "isolated mass", "setting": "scale 100 μmol", "value": 16.5, "unit": "mg"}, {"measurement": "isolated yield", "setting": "scale 100 μmol", "value": 11, "unit": "%"}]}
{"substance": "2-((3S,9S,12S,15S,18S,24S,27S,32aR)-18-((1H-pyrrolo[2,3-b]pyridin-3-yl)methyl)-3-(4-aminobutyl)-9-benzyl-12,24-bis(4-hydroxybenzyl)-8-methyl-1,4,7,10,13,16,19,22,25,28-decaoxo-15-pentyldotriacontahydropyrrolo[1,2-a][1,4,7,10,13,16,19,22,25,28]decaazacyclotriacontin-27-yl)acetic acid TFA salt", "values": [{"measurement": "isolated mass", "setting": "scale 100 μmol", "value": 56.3, "unit": "mg"}, {"measurement": "isolated yield", "setting": "scale 100 μmol", "value": 38, "unit": "%"}]}
{"substance": "2-((9S,12S,15S,18S,24S,27S,32aR)-18-((1H-indol-3-yl)methyl)-9-benzyl-24-(2-(4-(carboxymethyl)piperazine-1-carboxamido)ethyl)-12-(4-hydroxybenzyl)-8-methyl-1,4,7,10,13,16,19,22,25,28-decaoxo-15-pentyldotriacontahydropyrrolo[1,2-a][1,4,7,10,13,16,19,22,25,28]decaazacyclotriacontin-27-yl)acetic acid TFA salt", "values": [{"measurement": "step yield", "value": 43, "unit": "%"}]}
{"substance": "2-((9S,12S,15S,18S,24S,27S,32aR)-18-((1H-indol-3-yl)methyl)-9-benzyl-24-(4-(4-(carboxymethyl)piperazine-1-carboxamido)butyl)-12-(4-hydroxybenzyl)-8,23-dimethyl-1,4,7,10,13,16,19,22,25,28-decaoxo-15-pentyldotriacontahydropyrrolo[1,2-a][1,4,7,10,13,16,19,22,25,28]decaazacyclotriacontin-27-yl)acetic acid TFA salt", "values": [{"measurement": "cyclisation yield", "setting": "cyclisation step, on A3-1, TFA salt", "value": 34, "unit": "%"}]}
{"substance": "2-((9S,12S,15S,18S,24S,27S,32aR)-18-((1H-indol-3-yl)methyl)-12-(4-((2-(2-(2-aminoethoxy)ethoxy)acetamido)methyl)benzyl)-9-benzyl-24-(4-(4-(carboxymethyl)piperazine-1-carboxamido)butyl)-8-methyl-1,4,7,10,13,16,19,22,25,28-decaoxo-15-(2-propoxyethyl)dotriacontahydropyrrolo[1,2-a][1,4,7,10,13,16,19,22,25,28]decaazacyclotriacontin-27-yl)acetic acid TFA salt", "values": [{"measurement": "isolated mass", "setting": "scale 1.80 mmol", "value": 1041, "unit": "mg"}, {"measurement": "isolated yield", "setting": "scale 1.80 mmol", "value": 33, "unit": "%"}]}
{"substance": "Gly-Gly-NMePhe-F4(amMeGlyDOTA)-Ahp-Trp-Gly-Tyr-Asp-D-Pro", "values": [{"measurement": "conjugation yield", "setting": "[1]", "value": 46, "unit": "%"}]}
{"substance": "Gly-Gly-NMePhe-F(4AmAc)-Ahp-Trp-Gly-Tyr-Asp-D-Pro", "values": [{"measurement": "step yield", "setting": "[1]", "value": 82, "unit": "%"}]}
{"substance": "Gly-Gly-NMePhe-F(4amPEG2NHAAZTA)-Ao-Trp-Gly-K(COpipzaa)-Asp-D-Pro", "values": [{"measurement": "step yield", "setting": "head-to-tail ring", "value": 32, "unit": "% yield"}]}
{"substance": "Gly-Gly-NMePhe-F(4amPEG2NHDOTA)-Aoc-Trp-Gly-K(COpipzaa)-Asp-D-Pro", "values": [{"measurement": "conjugation yield", "setting": "head-to-tail ring", "value": 70, "unit": "%"}]}
{"substance": "Gly-Gly-NMePhe-F(4amPEG2NHDOTA-Ga)-Aoc-Trp-Gly-K(COpipzaa)-Asp-D-Pro [C44]", "values": [{"measurement": "step yield", "setting": "head-to-tail ring", "value": 82, "unit": "% yield"}]}
{"substance": "Gly-Gly-NMePhe-F(4amPEG2NHDOTA-Lu)-Aoc-Trp-Gly-K(COpipzaa)-Asp-D-Pro [C1]", "values": [{"measurement": "step yield", "setting": "head-to-tail ring", "value": 78, "unit": "% yield"}]}
{"substance": "Gly-Gly-NMePhe-Tyr-Ahp-Trp-Gly-Tyr-Asp-D-Pro", "values": [{"measurement": "step yield", "value": 59, "unit": "%"}]}
{"substance": "Lys-Gly-NMePhe-Tyr-Aoc-Trp-Gly-Tyr-Asp-D-Pro", "values": [{"measurement": "isolated yield", "value": 16, "unit": "%"}]}
